# From PubChem BioAssay AID1259415 (National Center for Advancing Translational Sciences (NCATS), 2018)
# Where “and” joins values, the source holds several entries; their conditions need not be identical. Equal values may be shown once. Among all 410,000 compounds or so, about 18,000 (4.4%) were called active. The inconclusive results got no clear call from the source; some entries with a clear call stand among them for comparison. No stated cut-off is given here; in the data, active means activity change below about -60%; inconclusive means no clear call, values can overlap the other calls; inactive means above about -39%. The source holds several records for some structures; these can differ, active in one and inactive in another.
# Test: qHTS Assay for inhibitors of the human cytomegalovirus (HCMV)
# Conditions: HFF cells, HCMV-luciferase reporter, 72 h; at 57.5 µM; stronger effect = lower value
# Method in brief: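 Cell-based, HFFs, 1000 cells/well, 16 h 37C; cpds in DMSO + HCMV-luc, MOI 1 PFU/cell; 72 h 37C; OneGlo luminescence after 5 min RT; norm. to buffer vs Salinomycin 10uM.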
# On the % scale 0 is the no-effect control and ±100 the full control effect.
row,Structure (SMILES),"activity change, negative = inhibition"
1,CC(C)(C)c1ccc(NC(=O)COc2ccc(-n3ccnc3)cc2)cc1,active: -85.6%
2,Cc1ccc(-c2noc(C3CCCN(C(=O)C4CCCCC4)C3)n2)o1 (centres undefined),inactive: 38%
3,Cc1cccc(C)c1NC(=O)NCc1ccco1,inconclusive: -47.2%
4,CCN1CCN(Cc2ccc(NC(=O)c3ccc(C)c(NC(=O)N4CCNC4=O)c3)cc2C(F)(F)F)CC1,inactive: -6.47% and active: -94.2%
5,COc1ccc(/C=C(/NC(=O)c2ccco2)C(=O)NCc2ccco2)cc1OC,inconclusive: -43.4%
6,CCOC(=O)c1ccc(NC(=O)c2nc[nH]c2C(=O)N2CCN(C(=O)OC(C)(C)C)CC2)cc1,inconclusive: -57.1%
7,Cc1ccc2c(c1)sc1nc(-c3cc4cc(Cl)ccc4oc3=O)cn12,inconclusive: -54.9%
8,O=CN1CCN(C(=O)c2ccc3c(c2)OCO3)CC1,inconclusive: -52.4%
9,CCc1nc2ccc(C(=O)NCCOc3ccc(OC)cc3)cn2c1N(CCN(C)C)CC1CC1,active: -63.7%
10,N#Cc1c(NC(=O)c2ccc(N3CCOCC3)c([N+](=O)[O-])c2)sc2c1CCCC2,inconclusive: -47.1%
11,Cn1nc(C(C)(C)C)cc1C(=O)N1CCCCC1c1cc(C(=O)Nc2cccc3c2CCCC3)no1 (centres undefined),inconclusive: -49.2%
12,COC(=O)c1cc(OC)c(OC)cc1NC(=O)c1cccc(C)c1,inconclusive: -44.2%
13,O=C(Nc1cc(S(=O)(=O)N2CCOCC2)ccc1N1CCCC1)c1ccccc1C(F)(F)F,inconclusive: 0%
14,O=C(CC1(O)C(=O)c2ccccc2C1=O)c1ccccc1,inconclusive: -53.8%
15,COCCN1Cc2cccc(C(=O)Nc3cccc(-c4nc5ccccc5[nH]4)c3)c2C1=O,active: -69.1%
16,COc1ccc(F)cc1CN1CCN(C(=O)c2ccc(S(=O)(=O)N3CCCCCC3)cc2)CC1,inconclusive: -46.6%
17,Nc1cc(Cl)c2nonc2c1[N+](=O)[O-],active: -94.6%
18,COc1ccccc1NC(=O)NC1CCCCCCC1,inconclusive: -54%
19,CC1Cc2nc(SCC(=O)Nc3ccc4c(c3)OCCO4)n(C)c(=O)c2S1 (centres undefined),inconclusive: -51.7%
20,Cc1ccccc1CN(C)CC(=O)Nc1ccccc1-c1ccccc1,inconclusive: -53.7%
21,O=C(N/N=C/c1ccc([N+](=O)[O-])s1)c1ccccc1Br,active: -77.4%
22,CC(=NNc1nc2ccccc2s1)c1ccncn1,active: -100%
23,CCC(C(=O)NCc1ccc2c(c1)CCN2C(=O)c1ccc(F)cc1)c1ccccc1 (centres undefined),inactive: 11.3%
24,COC(=O)N/N=C/c1cn(Cc2ccccc2Cl)c2ccccc12,inconclusive: -40.2%

# Part of the list above in another layout:
row	Structure (SMILES)	activity change, negative = inhibition
23	CCC(C(=O)NCc1ccc2c(c1)CCN2C(=O)c1ccc(F)cc1)c1ccccc1 (centres undefined)	inactive: 11.3%
24	COC(=O)N/N=C/c1cn(Cc2ccccc2Cl)c2ccccc12	inconclusive: -40.2%
